# Laboratory results published in the supplement of paper PMC12819154, “High-throughput peptide-centric local stability assay extends protein–ligand identification to membrane proteins, tissues and bacteria” (Nature Structural & Molecular Biology, 2025).
# Amino acid sequences for entries named in this document (tags omitted). A change or cut given only in a name is not applied to a line headed by its entry.
# UniProt A2AJB2: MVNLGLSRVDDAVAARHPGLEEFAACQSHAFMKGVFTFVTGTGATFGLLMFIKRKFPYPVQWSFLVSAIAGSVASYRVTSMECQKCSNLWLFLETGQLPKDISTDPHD
# UniProt B1AR13: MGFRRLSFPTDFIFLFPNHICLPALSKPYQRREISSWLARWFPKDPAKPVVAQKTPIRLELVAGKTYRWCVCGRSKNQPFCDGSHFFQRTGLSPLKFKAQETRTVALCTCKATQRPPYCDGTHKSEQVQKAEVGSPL
# UniProt B1ARW8: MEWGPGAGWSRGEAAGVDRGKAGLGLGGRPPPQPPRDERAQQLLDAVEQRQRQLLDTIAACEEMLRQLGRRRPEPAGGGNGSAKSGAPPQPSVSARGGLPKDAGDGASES
# UniProt A2AWL7: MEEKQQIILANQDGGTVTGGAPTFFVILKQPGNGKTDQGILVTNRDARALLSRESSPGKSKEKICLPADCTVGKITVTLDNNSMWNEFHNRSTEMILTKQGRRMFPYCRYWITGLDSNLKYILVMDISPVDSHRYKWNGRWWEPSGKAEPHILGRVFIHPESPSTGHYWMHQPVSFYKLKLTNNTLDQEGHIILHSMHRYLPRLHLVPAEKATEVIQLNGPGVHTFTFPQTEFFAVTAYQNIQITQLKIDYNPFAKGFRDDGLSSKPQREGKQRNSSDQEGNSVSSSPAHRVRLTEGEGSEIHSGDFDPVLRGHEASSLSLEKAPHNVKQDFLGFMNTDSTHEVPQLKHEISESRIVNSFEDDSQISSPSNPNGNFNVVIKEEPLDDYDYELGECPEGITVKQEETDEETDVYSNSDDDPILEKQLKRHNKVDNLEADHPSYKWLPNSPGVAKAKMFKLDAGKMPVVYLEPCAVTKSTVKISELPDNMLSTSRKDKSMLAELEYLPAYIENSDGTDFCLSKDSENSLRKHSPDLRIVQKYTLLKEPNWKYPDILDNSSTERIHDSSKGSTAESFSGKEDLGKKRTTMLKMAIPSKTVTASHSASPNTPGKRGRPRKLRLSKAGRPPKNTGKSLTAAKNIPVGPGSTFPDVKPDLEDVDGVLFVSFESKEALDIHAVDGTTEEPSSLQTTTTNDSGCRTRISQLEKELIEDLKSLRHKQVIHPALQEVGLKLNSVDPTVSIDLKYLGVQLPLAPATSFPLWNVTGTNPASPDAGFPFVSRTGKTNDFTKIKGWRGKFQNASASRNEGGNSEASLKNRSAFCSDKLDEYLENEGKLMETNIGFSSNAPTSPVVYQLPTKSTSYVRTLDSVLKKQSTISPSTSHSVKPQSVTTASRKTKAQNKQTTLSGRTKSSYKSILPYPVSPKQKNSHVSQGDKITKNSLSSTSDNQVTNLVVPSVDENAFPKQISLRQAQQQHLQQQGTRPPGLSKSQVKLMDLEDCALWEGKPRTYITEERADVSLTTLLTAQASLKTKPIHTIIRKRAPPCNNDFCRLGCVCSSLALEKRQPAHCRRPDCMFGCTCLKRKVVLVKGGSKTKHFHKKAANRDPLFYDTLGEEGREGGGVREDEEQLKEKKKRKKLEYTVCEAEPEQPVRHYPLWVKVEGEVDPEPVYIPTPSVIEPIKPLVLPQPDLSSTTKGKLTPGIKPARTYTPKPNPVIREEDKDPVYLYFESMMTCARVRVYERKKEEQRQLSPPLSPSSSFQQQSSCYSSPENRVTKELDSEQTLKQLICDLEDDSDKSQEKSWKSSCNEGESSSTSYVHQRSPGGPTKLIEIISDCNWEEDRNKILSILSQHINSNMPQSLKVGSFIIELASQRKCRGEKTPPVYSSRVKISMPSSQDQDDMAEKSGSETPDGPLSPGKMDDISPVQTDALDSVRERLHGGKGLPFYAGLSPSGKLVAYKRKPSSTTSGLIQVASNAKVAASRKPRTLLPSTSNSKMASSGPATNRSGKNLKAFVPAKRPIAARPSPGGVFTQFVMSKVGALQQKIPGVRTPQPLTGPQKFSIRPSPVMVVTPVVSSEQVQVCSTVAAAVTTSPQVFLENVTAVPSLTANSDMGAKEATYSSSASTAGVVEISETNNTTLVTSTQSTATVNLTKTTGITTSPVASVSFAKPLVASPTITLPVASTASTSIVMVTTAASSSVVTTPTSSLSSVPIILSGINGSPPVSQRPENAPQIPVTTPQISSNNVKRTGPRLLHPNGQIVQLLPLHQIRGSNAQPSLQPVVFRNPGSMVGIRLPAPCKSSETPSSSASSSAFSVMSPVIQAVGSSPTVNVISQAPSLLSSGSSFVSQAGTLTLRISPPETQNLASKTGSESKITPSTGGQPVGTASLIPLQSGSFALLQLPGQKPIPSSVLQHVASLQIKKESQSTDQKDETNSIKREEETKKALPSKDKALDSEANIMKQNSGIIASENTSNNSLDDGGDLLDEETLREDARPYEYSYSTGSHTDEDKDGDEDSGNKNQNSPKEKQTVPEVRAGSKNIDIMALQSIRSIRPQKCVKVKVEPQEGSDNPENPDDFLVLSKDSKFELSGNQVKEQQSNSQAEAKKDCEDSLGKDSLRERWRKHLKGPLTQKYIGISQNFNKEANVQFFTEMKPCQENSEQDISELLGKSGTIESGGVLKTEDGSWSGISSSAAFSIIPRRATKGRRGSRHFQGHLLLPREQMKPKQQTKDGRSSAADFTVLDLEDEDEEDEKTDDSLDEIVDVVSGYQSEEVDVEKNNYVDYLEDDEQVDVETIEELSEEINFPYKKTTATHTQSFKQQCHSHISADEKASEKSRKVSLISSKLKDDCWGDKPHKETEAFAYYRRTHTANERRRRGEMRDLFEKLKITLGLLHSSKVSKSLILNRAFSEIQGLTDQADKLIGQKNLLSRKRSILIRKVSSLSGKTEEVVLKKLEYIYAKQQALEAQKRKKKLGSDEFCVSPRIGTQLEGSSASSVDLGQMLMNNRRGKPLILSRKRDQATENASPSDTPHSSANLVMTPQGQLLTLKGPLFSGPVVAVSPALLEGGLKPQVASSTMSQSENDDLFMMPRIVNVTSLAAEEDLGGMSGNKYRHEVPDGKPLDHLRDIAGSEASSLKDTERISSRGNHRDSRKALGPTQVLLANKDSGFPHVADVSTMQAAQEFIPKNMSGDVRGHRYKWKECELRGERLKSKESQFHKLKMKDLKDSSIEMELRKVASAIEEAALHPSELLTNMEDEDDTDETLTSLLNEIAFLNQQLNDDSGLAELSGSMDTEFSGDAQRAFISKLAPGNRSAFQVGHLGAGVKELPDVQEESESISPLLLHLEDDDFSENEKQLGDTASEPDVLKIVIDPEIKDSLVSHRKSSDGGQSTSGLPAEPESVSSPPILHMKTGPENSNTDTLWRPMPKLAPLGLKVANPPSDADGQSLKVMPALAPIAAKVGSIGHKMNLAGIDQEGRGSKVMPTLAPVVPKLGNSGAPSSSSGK
# UniProt A2AKG8: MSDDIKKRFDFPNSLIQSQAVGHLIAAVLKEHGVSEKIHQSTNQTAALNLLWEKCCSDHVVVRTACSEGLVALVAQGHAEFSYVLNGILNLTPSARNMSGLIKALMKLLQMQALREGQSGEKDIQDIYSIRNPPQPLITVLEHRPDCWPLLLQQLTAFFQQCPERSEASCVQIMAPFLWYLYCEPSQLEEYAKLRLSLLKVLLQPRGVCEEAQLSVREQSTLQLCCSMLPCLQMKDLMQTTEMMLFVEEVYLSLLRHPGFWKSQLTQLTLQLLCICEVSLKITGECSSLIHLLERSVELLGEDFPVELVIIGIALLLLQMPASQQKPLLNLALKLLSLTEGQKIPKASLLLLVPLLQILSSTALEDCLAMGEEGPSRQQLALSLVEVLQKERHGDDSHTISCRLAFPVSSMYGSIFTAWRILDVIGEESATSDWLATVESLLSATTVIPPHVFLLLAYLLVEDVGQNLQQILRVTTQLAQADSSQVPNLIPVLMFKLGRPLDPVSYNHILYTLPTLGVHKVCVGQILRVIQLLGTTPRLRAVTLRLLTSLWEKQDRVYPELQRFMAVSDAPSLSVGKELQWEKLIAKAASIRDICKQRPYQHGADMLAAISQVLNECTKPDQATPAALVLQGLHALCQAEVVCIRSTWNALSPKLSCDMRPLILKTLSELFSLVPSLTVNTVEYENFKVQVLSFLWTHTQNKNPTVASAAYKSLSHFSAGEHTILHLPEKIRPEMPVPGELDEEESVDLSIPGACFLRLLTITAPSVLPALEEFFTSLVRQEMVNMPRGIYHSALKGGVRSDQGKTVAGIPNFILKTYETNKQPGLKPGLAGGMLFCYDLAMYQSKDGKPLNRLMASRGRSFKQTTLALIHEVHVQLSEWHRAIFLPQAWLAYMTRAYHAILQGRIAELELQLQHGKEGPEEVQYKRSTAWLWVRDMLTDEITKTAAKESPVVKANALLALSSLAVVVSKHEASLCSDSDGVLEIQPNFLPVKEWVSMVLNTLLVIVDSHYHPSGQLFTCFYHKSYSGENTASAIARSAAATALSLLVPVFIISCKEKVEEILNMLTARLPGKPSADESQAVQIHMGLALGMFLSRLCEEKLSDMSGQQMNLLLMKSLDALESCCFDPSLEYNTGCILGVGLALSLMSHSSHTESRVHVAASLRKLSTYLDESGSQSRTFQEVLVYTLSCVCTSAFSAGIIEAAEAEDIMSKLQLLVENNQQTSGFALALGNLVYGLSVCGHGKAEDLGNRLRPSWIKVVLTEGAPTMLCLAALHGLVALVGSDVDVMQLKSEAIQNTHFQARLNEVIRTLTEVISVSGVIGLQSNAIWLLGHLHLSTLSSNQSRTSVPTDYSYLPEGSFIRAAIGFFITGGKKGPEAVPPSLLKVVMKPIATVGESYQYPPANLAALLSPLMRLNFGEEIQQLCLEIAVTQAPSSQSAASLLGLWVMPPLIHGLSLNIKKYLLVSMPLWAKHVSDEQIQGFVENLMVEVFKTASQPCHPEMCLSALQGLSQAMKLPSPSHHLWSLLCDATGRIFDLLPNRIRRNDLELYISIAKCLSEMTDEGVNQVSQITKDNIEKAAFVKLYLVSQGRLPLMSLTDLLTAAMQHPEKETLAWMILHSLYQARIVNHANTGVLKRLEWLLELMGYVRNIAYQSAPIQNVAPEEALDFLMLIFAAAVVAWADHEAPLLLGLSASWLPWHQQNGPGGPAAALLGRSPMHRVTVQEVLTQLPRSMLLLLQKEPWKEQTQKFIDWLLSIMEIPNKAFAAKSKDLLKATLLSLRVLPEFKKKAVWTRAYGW
# UniProt A2A5K6: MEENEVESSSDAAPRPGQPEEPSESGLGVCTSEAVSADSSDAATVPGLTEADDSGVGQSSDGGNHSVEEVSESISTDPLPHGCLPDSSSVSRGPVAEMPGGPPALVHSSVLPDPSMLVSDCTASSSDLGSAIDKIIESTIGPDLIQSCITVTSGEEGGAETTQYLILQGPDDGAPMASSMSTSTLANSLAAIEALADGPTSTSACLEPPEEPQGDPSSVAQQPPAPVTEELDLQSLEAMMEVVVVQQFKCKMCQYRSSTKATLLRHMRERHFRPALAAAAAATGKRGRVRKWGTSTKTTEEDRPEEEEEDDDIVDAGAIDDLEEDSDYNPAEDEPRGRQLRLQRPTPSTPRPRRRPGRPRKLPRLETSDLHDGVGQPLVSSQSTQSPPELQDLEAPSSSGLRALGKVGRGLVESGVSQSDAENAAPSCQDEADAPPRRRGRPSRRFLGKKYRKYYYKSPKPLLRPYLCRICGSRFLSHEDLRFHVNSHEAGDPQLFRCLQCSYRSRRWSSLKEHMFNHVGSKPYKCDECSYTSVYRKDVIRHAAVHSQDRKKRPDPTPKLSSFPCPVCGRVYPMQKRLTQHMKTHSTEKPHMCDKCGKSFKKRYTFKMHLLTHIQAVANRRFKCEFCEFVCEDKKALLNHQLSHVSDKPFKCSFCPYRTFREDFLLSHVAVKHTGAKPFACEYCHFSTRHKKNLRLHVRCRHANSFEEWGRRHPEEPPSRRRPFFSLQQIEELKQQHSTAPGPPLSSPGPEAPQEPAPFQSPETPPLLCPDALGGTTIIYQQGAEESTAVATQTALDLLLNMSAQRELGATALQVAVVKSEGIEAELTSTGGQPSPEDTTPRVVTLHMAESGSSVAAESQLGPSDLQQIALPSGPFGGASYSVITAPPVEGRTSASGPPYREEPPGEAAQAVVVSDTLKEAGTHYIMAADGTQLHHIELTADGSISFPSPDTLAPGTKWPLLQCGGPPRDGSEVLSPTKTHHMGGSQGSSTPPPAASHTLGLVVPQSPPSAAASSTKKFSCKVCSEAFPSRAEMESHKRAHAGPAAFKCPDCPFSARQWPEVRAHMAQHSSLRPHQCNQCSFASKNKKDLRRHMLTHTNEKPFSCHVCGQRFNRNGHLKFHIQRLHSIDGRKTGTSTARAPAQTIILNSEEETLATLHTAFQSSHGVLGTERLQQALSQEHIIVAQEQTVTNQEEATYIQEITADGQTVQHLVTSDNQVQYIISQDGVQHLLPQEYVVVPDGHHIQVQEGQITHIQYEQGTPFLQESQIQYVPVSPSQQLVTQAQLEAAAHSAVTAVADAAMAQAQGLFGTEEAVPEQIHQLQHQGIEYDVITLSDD
# This is one part of the list. Most entries show no effect beyond the scatter of the controls.
# Compound: CN[C@@H]1C[C@H]2O[C@@](C)([C@@H]1OC)n1c3ccccc3c3c4c(c5c6ccccc6n2c5c31)C(=O)NC4 [staurosporine]
# Assay: log2 fold change of tryptic peptide abundance, ligand vs vehicle (limited proteolysis) (log2 ratio); higher = more trypsin-susceptible (destabilized)
# Conditions: ligand concentration: 20 uM; sample: mouse liver crude lysate; replicate design: treated separately
row,Target,log2 fold change
1,"A0A1W2P872 (peptide sequence: KRPLETPPEVVCTK, peptide start residue: 10), A0A1W2P872",-0.714
2,"UniProt A2BDX3 (peptide sequence: FEGQMTVYHHDGGPCYR, peptide start residue: 208)",0.254
3,"UniProt A1L314 (peptide sequence: SWIKDPQTNQWK, peptide start residue: 617)",-0.16
4,"UniProt A2AJB2 (peptide sequence: DISTDPHD, peptide start residue: 101)",-0.0996
5,"UniProt B1AX39 (peptide sequence: RPHVEETDKR, peptide start residue: 409)",-0.597
6,"UniProt A2AWR3 (peptide sequence: EIGHSSPPSVSPK, peptide start residue: 855)",-0.345
7,"UniProt B1AR13 (peptide sequence: NQPFCDGSHFFQR, peptide start residue: 77)",-0.253
8,"UniProt A2AJK6 (peptide sequence: KCCNHPYLINGAEEK, peptide start residue: 1095)",-0.667
9,"UniProt A2AAE1 (peptide sequence: TQHLSLQVPLR, peptide start residue: 1215)",0.591
10,"A0A0G2JDV3 (peptide sequence: MQASNSCRECIR, peptide start residue: 212), A0A0G2JDV3",-0.709
11,"UniProt A2RSY1 (peptide sequence: GKIPTLIDR, peptide start residue: 220)",0.398
12,"UniProt A7XUY5 (peptide sequence: EMKDFLLDRIK, peptide start residue: 1190)",0.512
13,"UniProt B1ARW8 (peptide sequence: AGLGLGGRPPPQPPRDER, peptide start residue: 22)",0.138
14,"UniProt A6H5Z3 (peptide sequence: CLHIYSVLGAR, peptide start residue: 297)",0.324
15,"UniProt A2ARA8 (peptide sequence: DVPVVQLHR, peptide start residue: 906)",0.077
16,"UniProt A2RTL5 (peptide sequence: MLWQGKK, peptide start residue: 279)",0.51
17,"UniProt A6X8Z5 (peptide sequence: TLHVSLGSQVSK, peptide start residue: 576)",0.349
18,"UniProt A3KGB4 (peptide sequence: VLTAYAYRNPK, peptide start residue: 557)",0.298

row,Target,log2 fold change
1,"UniProt A2BH40 (peptide sequence: SPFLHSGMK, peptide start residue: 1605)",0.205
2,"UniProt A2AJ15 (peptide sequence: RGPPHLQIRPPNTVSK, peptide start residue: 122)",0.128
3,"A0A5F8MPU3 (peptide sequence: SPERPSDISLKK, peptide start residue: 1916), A0A5F8MPU3",-0.164
4,"UniProt A3KMP2 (peptide sequence: SLRDCQAWK, peptide start residue: 2)",-0.491
5,"UniProt B1AVH7 (peptide sequence: MEHLKDDMEAYR, peptide start residue: 450)",0.269
6,"UniProt A2AWL7 (peptide sequence: HNKVDNLEADHPSYK, peptide start residue: 429)",-0.731
7,"UniProt A2AQH4 (peptide sequence: GSQAGAEGQPSTVK, peptide start residue: 764)",0.389
8,"A0A7N9VSG0 (peptide sequence: EAILQVITSK, peptide start residue: 370), A0A7N9VSG0",-0.329
9,"UniProt A3KGF9 (peptide sequence: TPSAEEEFVQK, peptide start residue: 373)",0.778
10,"UniProt A2A690 (peptide sequence: YSQTPQIGR, peptide start residue: 1715)",-0.854
11,"UniProt A1IGU4 (peptide sequence: GYVPSNFLAR, peptide start residue: 654)",-0.239
12,"UniProt A2AF47 (peptide sequence: AENIMASLER, peptide start residue: 300)",-0.0943
13,"UniProt A2AKG8 (peptide sequence: KLSTYLDESGSQSR, peptide start residue: 1165)",0.627
14,"UniProt A2A5K6 (peptide sequence: ELGATALQVAVVK, peptide start residue: 807)",0.0786
15,"UniProt B2RRF6 (peptide sequence: KSEEVVIK, peptide start residue: 815)",-0.316
16,"UniProt A6H5Y3 (peptide sequence: LNGEKYPRPLNIIEGPLMNGMK, peptide start residue: 684)",0.129
17,"UniProt A2AG58 (peptide sequence: QDADFNQTK, peptide start residue: 519)",0.426

# Reformatted with bars between the fields: entries from further up.
row | Target | log2 fold change
5 | UniProt B1AVH7 (peptide sequence: MEHLKDDMEAYR, peptide start residue: 450) | 0.269
6 | UniProt A2AWL7 (peptide sequence: HNKVDNLEADHPSYK, peptide start residue: 429) | -0.731
7 | UniProt A2AQH4 (peptide sequence: GSQAGAEGQPSTVK, peptide start residue: 764) | 0.389
8 | A0A7N9VSG0 (peptide sequence: EAILQVITSK, peptide start residue: 370), A0A7N9VSG0 | -0.329
9 | UniProt A3KGF9 (peptide sequence: TPSAEEEFVQK, peptide start residue: 373) | 0.778
10 | UniProt A2A690 (peptide sequence: YSQTPQIGR, peptide start residue: 1715) | -0.854
